Data source: PubChem BioAssay AID1508597 (Cure First, 2020)
Here is a random part of about 2,100 reagents. 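Calls flag viability under 80% in either arm, not effects specific to rucaparib; the reference for percent is not stated.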 Unmarked entries are inactive. A reagent listed more than once was tested more than once; the source does not tell the runs apart. The record does not give: the 100% reference.

Test: 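Survival screen with siRNA in ovarian cancer cells derived from patients, with or without rucaparib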 (primary screen)
System: human ovarian carcinoma lines grown from tumours: OCI-P5x (papillary serous) and OCI-C5x (clear cell)
Reagent: siRNA pool against human genes, 1.25 pmol siRNA per well
Duration: 72 h or 96 h, depending on the cell culture
Conditions: rucaparib 20 µM (about IC30) or vehicle, present until read-out
Read-out: 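ATP luminescence measured at 72 or 96 h according to the culture, then normalised and expressed as percent viability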
Reading the numbers: viability, normalised: higher = more viable cells remaining
Rule for the call: 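Active when normalised viability falls below 80 percent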
Meaning of the calls: active = viability under 80%; inactive = viability 80% or more

SIN3A (GeneID 25942), rucaparib or vehicle Rucaparib, cell line OCI-C5x (clear cell), technical replicate 1
- viability, normalised (%): 25.1 (active)

SIN3A (GeneID 25942), rucaparib or vehicle Rucaparib, cell line OCI-C5x (clear cell), technical replicate 2
- viability, normalised (%): 23 (active)

SIN3A (GeneID 25942), rucaparib or vehicle Rucaparib, cell line OCI-C5x (clear cell), technical replicate 3
- viability, normalised (%): 18.2 (active)

SIN3A (GeneID 25942), rucaparib or vehicle Rucaparib, cell line OCI-P5x (serous), technical replicate 1
- viability, normalised (%): 39.3 (active)

SIN3A (GeneID 25942), rucaparib or vehicle Rucaparib, cell line OCI-P5x (serous), technical replicate 2
- viability, normalised (%): 38.8 (active)

SIN3A (GeneID 25942), rucaparib or vehicle Rucaparib, cell line OCI-P5x (serous), technical replicate 3
- viability, normalised (%): 55.9 (active)

SIN3A (GeneID 25942), rucaparib or vehicle Vehicle, cell line OCI-C5x (clear cell), technical replicate 1
- viability, normalised (%): 23.1 (active)

SIN3A (GeneID 25942), rucaparib or vehicle Vehicle, cell line OCI-C5x (clear cell), technical replicate 2
- viability, normalised (%): 15 (active)

SIN3A (GeneID 25942), rucaparib or vehicle Vehicle, cell line OCI-C5x (clear cell), technical replicate 3
- viability, normalised (%): 22.6 (active)

SIN3A (GeneID 25942), rucaparib or vehicle Vehicle, cell line OCI-P5x (serous), technical replicate 1
- viability, normalised (%): 59.2 (active)

SIN3A (GeneID 25942), rucaparib or vehicle Vehicle, cell line OCI-P5x (serous), technical replicate 2
- viability, normalised (%): 57.1 (active)

SIN3A (GeneID 25942), rucaparib or vehicle Vehicle, cell line OCI-P5x (serous), technical replicate 3
- viability, normalised (%): 72.5 (active)

ADK (GeneID 132), rucaparib or vehicle Rucaparib, cell line OCI-C5x (clear cell), technical replicate 1
- viability, normalised (%): 92.1

ADK (GeneID 132), rucaparib or vehicle Rucaparib, cell line OCI-C5x (clear cell), technical replicate 2
- viability, normalised (%): 97.5

ADK (GeneID 132), rucaparib or vehicle Rucaparib, cell line OCI-C5x (clear cell), technical replicate 3
- viability, normalised (%): 68.7 (active)

ADK (GeneID 132), rucaparib or vehicle Rucaparib, cell line OCI-P5x (serous), technical replicate 1
- viability, normalised (%): 116

ADK (GeneID 132), rucaparib or vehicle Rucaparib, cell line OCI-P5x (serous), technical replicate 2
- viability, normalised (%): 92.4

ADK (GeneID 132), rucaparib or vehicle Rucaparib, cell line OCI-P5x (serous), technical replicate 3
- viability, normalised (%): 86.3

ADK (GeneID 132), rucaparib or vehicle Vehicle, cell line OCI-C5x (clear cell), technical replicate 1
- viability, normalised (%): 75.7 (active)

ADK (GeneID 132), rucaparib or vehicle Vehicle, cell line OCI-C5x (clear cell), technical replicate 2
- viability, normalised (%): 60.4 (active)

ADK (GeneID 132), rucaparib or vehicle Vehicle, cell line OCI-C5x (clear cell), technical replicate 3
- viability, normalised (%): 59.3 (active)

ADK (GeneID 132), rucaparib or vehicle Vehicle, cell line OCI-P5x (serous), technical replicate 1
- viability, normalised (%): 97

ADK (GeneID 132), rucaparib or vehicle Vehicle, cell line OCI-P5x (serous), technical replicate 2
- viability, normalised (%): 83

ADK (GeneID 132), rucaparib or vehicle Vehicle, cell line OCI-P5x (serous), technical replicate 3
- viability, normalised (%): 82.1

TRIM24 (GeneID 8805), rucaparib or vehicle Rucaparib, cell line OCI-C5x (clear cell), technical replicate 1
- viability, normalised (%): 85.2

TRIM24 (GeneID 8805), rucaparib or vehicle Rucaparib, cell line OCI-C5x (clear cell), technical replicate 1
- viability, normalised (%): 42 (active)

TRIM24 (GeneID 8805), rucaparib or vehicle Rucaparib, cell line OCI-C5x (clear cell), technical replicate 2
- viability, normalised (%): 43.5 (active)

TRIM24 (GeneID 8805), rucaparib or vehicle Rucaparib, cell line OCI-C5x (clear cell), technical replicate 2
- viability, normalised (%): 52.2 (active)

TRIM24 (GeneID 8805), rucaparib or vehicle Rucaparib, cell line OCI-C5x (clear cell), technical replicate 3
- viability, normalised (%): 43.4 (active)

TRIM24 (GeneID 8805), rucaparib or vehicle Rucaparib, cell line OCI-P5x (serous), technical replicate 1
- viability, normalised (%): 73 (active)

TRIM24 (GeneID 8805), rucaparib or vehicle Rucaparib, cell line OCI-P5x (serous), technical replicate 1
- viability, normalised (%): 119

TRIM24 (GeneID 8805), rucaparib or vehicle Rucaparib, cell line OCI-P5x (serous), technical replicate 2
- viability, normalised (%): 74.6 (active)

TRIM24 (GeneID 8805), rucaparib or vehicle Rucaparib, cell line OCI-P5x (serous), technical replicate 2
- viability, normalised (%): 106

TRIM24 (GeneID 8805), rucaparib or vehicle Rucaparib, cell line OCI-P5x (serous), technical replicate 3
- viability, normalised (%): 68.7 (active)

TRIM24 (GeneID 8805), rucaparib or vehicle Rucaparib, cell line OCI-P5x (serous), technical replicate 3
- viability, normalised (%): 82.5

TRIM24 (GeneID 8805), rucaparib or vehicle Vehicle, cell line OCI-C5x (clear cell), technical replicate 1
- viability, normalised (%): 77.6 (active)

TRIM24 (GeneID 8805), rucaparib or vehicle Vehicle, cell line OCI-C5x (clear cell), technical replicate 1
- viability, normalised (%): 28.6 (active)

TRIM24 (GeneID 8805), rucaparib or vehicle Vehicle, cell line OCI-C5x (clear cell), technical replicate 2
- viability, normalised (%): 90.3

TRIM24 (GeneID 8805), rucaparib or vehicle Vehicle, cell line OCI-C5x (clear cell), technical replicate 2
- viability, normalised (%): 25.3 (active)

TRIM24 (GeneID 8805), rucaparib or vehicle Vehicle, cell line OCI-C5x (clear cell), technical replicate 3
- viability, normalised (%): 89.8

TRIM24 (GeneID 8805), rucaparib or vehicle Vehicle, cell line OCI-C5x (clear cell), technical replicate 3
- viability, normalised (%): 23.4 (active)

TRIM24 (GeneID 8805), rucaparib or vehicle Vehicle, cell line OCI-P5x (serous), technical replicate 1
- viability, normalised (%): 37.2 (active)

TRIM24 (GeneID 8805), rucaparib or vehicle Vehicle, cell line OCI-P5x (serous), technical replicate 1
- viability, normalised (%): 68.4 (active)

TRIM24 (GeneID 8805), rucaparib or vehicle Vehicle, cell line OCI-P5x (serous), technical replicate 2
- viability, normalised (%): 100

TRIM24 (GeneID 8805), rucaparib or vehicle Vehicle, cell line OCI-P5x (serous), technical replicate 2
- viability, normalised (%): 64 (active)

TRIM24 (GeneID 8805), rucaparib or vehicle Vehicle, cell line OCI-P5x (serous), technical replicate 3
- viability, normalised (%): 99.6

TRIM24 (GeneID 8805), rucaparib or vehicle Vehicle, cell line OCI-P5x (serous), technical replicate 3
- viability, normalised (%): 98.4
